Among all 52,000 sequences or so, about 210 (0.4%) were called active.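 Rule for the calls: active = gene whose silencing raises cell survival under the drug, median off-target-corrected z-score across its silencing RNAs 2 or more; inactive = the rest.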 This is one part of the list.

This experiment in a line: Resistance to Poly (ADP-Ribose) Polymerase inhibitor: Gene Identification via Genome-wide siRNA Screen. The note with it: mouse BRCA2 R2336H ES cells, olaparib, CellTiter-Glo viability; hits give high values. A digest of the protocol: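 Mouse BRCA2 R2336H ES cells were reverse-transfected with siRNA (20 nM final), treated at 48 h with 500 nM olaparib, and read by CellTiter-Glo after 72 h. Scores: MAD-based z per siRNA, median per gene, seed off-target correction.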
A general note: Cellular ATP, detected with luciferase, serves as a proxy for viable cell number.
For GGCUGUCCAGACUAGUUCUTT against BC040823, the z-score was inactive: -1.97.

Turning to GCACCUAGACAAUAACUUATT against 15-Sep, the z-score is inactive: 0.413.

For GGACAGAAGUGCAACAUCUTT against Dio1, the z-score was inactive: 1.12.

Consider ACAAAUCCACGUGCAAUGUTT against Cyp2d9, for which the z-score is inactive: 0.412.

“CGUGAGAAAGCCAAUCCCUTT against 0610005I04”: the z-score is inactive: 0.988.

With GCGUGUUCGGUUUACCAAGTT against Eif2c1, the z-score was inactive: -0.745.

As for GGCUUAAGGACAAGAAGAUTT against Gsn, the z-score was inactive: -1.9.

For GGCUUUCGGUCUCUUAGUCTT against BC052046, the z-score was inactive: -0.395.

“CCCUGGUCGUCAUUUUCAATT against 4932411A10Rik”: the z-score was inactive: -0.146.

Consider GGACACCUCCAAGAAGAGUTT against Ap1s1, for which the z-score was inactive: 0.781.

As for GCUGAAACAAAGGGUAUAUTT against Map2k7, the z-score was inactive: -3.33.

Consider GGGCAAGGAUUCCCUGUAUTT against Rpl36al, for which the z-score is inactive: -0.491.

Regarding GGAAUUUAGAAAAUGUGACTT against V1re6, the z-score is inactive: -0.218.

On to CCCGUAACCAUUUACUGGUTT against Tyro3, for which the z-score was inactive: 0.125.

Consider “GCGUCAAAAUUAUCCGAAATT against 1110007F05Rik”, for which the z-score was inactive: 1.88.

GCUUCCAAGAUGGAACUACTT against Psmb10: the z-score is inactive: 1.16.

On to “GGAGUGAUGAUCAAAAUCCTT against 1110051B16Rik”, for which the z-score was inactive: 0.705.

As to GCCGAGAAUUAUAUUUAACTT against Itga2, the z-score was inactive: 0.48.

For the sequence “GGUUUCCUAGAGAGUAAAATT against 4930521E07Rik”, the z-score was inactive: 1.04.

As to “CCCUUAAAUCUGGAAGCAGTT against 2700083E18Rik”, the z-score is inactive: 0.348.

Regarding GGUUUUUCUAGCUACAUUATT against Slc17a5, the z-score is inactive: 1.4.

Regarding “CCAUGUCUAUGAGUGUAGATT against 2310057J16Rik”, the z-score was inactive: -0.0866.

Regarding GGCAGUGAUAUACAGGUGGTT against Ptpn14, the z-score is inactive: 0.964.

For the sequence GCACUAUGAACGGAAGUUGTT against Map3k12, the z-score is inactive: 0.155.

For the sequence CCAAGGCUUGUGGCCUUAUTT against Comtd1, the z-score was inactive: -2.51.

For GGGAGGGUCUAUUGUUAAUTT against BC009118, the z-score is inactive: 0.737.

Consider GGCCUUCUCUGUCUUCUACTT against Olfr234, for which the z-score is inactive: 0.203.

For GGAGGAGAGGAGAAUAGCATT against Atp5k, the z-score was inactive: 0.394.

Turning to GUGCUUGAUCUCUUCGAUGTT against Ppt2, the z-score is inactive: 0.582.

With GGAGAACAAAGUCCACACGTT against AW125753, the z-score is inactive: -0.114.

On to GGUCUUUCUGACGCAGACUTT against G1p2, for which the z-score was inactive: -1.54.

In the case of “GCCUAAGGAUGAGUUUCAATT against 1110020P15Rik”, the z-score is inactive: 1.19.

With GGCUGUGGUCUUCAUUGAATT against Tpcn2, the z-score is inactive: -0.432.

For the sequence “GGUUGUUAUGGUCUCAUAUTT against 2610040E16Rik”, the z-score was inactive: -0.586.

Turning to GGGCUAAGUACCAAACUCATT against Ly6e, the z-score is inactive: -1.94.

Regarding GGGAAACAAAAAAGAUUUCTT against Ptpn13, the z-score is inactive: 0.393.

As for CCUACCGAGGUCAAGAAUUTT against Asf1a, the z-score was inactive: -1.06.

Turning to GCUUCAAGCCUGAGAGUAUTT against Gm443, the z-score is inactive: -2.56.

As to GGACUCAUCUUUAUUAUUCTT against Olfr393, the z-score is inactive: 0.449.

In the case of GGAUCAGAUUCUCUUCUUCTT against Gypa, the z-score was inactive: 0.378.

Regarding GGAAAGACCACAUUAUUAATT against Orc4l, the z-score is inactive: -1.43.

As to GCUCAGUACUCAGAAGUGCTT against Olfr578, the z-score is inactive: 0.0755.

As to GGUUGAAGUUGAAGUUUAATT against Top3a, the z-score was inactive: -0.517.

Consider GCUAGUUGAGGACUGAUAUTT against Chrna4, for which the z-score was inactive: 0.861.

As to GGCUUUCGCUAGAAAACUCTT against Sftpc, the z-score is inactive: 0.15.

On to GGCGAUUUACAACUUUGGATT against Hist3h2a, for which the z-score was inactive: 0.701.

Turning to CCAAUUAUGUGAGAAGUGATT against Snx24, the z-score is inactive: 0.487.

Regarding “CGAAAUACCGAUGACUGGGTT against 4933416E05Rik”, the z-score was inactive: -0.709.

Consider GCAUCAAAUUUUGAUAAGCTT against BC037674, for which the z-score was inactive: 0.519.

Consider GGUCCAUAAAGAAACCAUATT against Zfp207, for which the z-score is inactive: -2.51.

In the case of GGAUACUUUUCUUCUAAGATT against Krtap15, the z-score was inactive: 0.47.

On to GGAAAUCCCGGGAUGUCAGTT against Pnliprp2, for which the z-score was inactive: 0.493.

With CUUUGUACUAUGGUUCAAUTT against Olfr1010, the z-score was inactive: 0.195.

As for GGCUGUUUCCAAAAAGAAGTT against Hist1h1b, the z-score was inactive: -0.335.

On to GGCUCUUAUUUUUGUAAAGTT against Rgl1, for which the z-score is inactive: 0.849.

On to GGAGCUGCGCUUGACAUUGTT against Neil1, for which the z-score is inactive: 0.669.

Take AGAACAGAGGGCUACCUUGTT against Ly6g6e: the z-score is inactive: -0.705.

For CCUGGACACGAUUUCAGAGTT against Rbm6, the z-score was inactive: 0.57.

For GCAAAUGUUGCCCAUCGUGTT against Ppp2r1b, the z-score is inactive: -0.878.

In the case of GGAGAGCGAAGAAAAAAUGTT against Birc2, the z-score was inactive: 0.0315.

Regarding CCAAGUGUGAUCUCCAUCATT against LOC331392, the z-score is inactive: -1.49.

As for “GGCCAAACUAAUGUUUUUCTT against 1700058C01Rik”, the z-score is inactive: 0.283.

With GGAAAGUAACUAAAGGCAATT against Arl10c, the z-score was inactive: -0.298.

Take CCAGGACAAUAACUCUGAGTT against Aatk: the z-score was inactive: 0.365.

For GGAGCUAGGAAGGUGGUAGTT against Mutyh, the z-score was inactive: 0.077.

Take “GGAAGAGGCAGAUUUAUGGTT against 2310046G15Rik”: the z-score is inactive: 2.47.

(Values after PubChem BioAssay AID1347423 (Functional Genomics Laboratory (NCATS/FGL), 2020).)
